Test results published in the supplement of paper PMC12067093, “Discovery and optimisation of a covalent ligand for TRIM25 and its application to targeted protein ubiquitination” (Chemical Science, 2025).
The other results are listed elsewhere or left out.

The chains behind the UniProt entries cited, without tags or fusion partners. Where a name states a change or a piece, a line headed by the entry shows the natural chain unless it says otherwise.
UniProt P31153, whole entry, looked up: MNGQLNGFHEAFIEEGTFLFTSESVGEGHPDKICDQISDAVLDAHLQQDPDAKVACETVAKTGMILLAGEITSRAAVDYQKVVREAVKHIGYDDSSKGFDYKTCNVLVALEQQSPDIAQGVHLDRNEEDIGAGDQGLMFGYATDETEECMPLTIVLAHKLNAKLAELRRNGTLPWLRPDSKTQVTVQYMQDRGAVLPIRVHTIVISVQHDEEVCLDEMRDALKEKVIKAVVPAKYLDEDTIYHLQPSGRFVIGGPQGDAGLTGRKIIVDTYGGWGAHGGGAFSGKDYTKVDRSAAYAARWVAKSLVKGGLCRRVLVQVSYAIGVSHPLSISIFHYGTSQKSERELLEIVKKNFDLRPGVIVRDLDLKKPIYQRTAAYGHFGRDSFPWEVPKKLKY
UniProt Q9NZL9, whole entry, looked up: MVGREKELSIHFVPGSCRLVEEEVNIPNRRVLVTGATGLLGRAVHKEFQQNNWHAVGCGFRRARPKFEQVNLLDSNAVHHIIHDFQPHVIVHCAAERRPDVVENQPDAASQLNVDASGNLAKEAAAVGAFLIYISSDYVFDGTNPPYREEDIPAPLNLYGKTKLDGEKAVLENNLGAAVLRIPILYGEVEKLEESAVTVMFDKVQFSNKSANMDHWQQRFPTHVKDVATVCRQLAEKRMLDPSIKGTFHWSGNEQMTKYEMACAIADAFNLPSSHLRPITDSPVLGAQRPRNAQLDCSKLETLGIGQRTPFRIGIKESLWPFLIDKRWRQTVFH
UniProt P27816: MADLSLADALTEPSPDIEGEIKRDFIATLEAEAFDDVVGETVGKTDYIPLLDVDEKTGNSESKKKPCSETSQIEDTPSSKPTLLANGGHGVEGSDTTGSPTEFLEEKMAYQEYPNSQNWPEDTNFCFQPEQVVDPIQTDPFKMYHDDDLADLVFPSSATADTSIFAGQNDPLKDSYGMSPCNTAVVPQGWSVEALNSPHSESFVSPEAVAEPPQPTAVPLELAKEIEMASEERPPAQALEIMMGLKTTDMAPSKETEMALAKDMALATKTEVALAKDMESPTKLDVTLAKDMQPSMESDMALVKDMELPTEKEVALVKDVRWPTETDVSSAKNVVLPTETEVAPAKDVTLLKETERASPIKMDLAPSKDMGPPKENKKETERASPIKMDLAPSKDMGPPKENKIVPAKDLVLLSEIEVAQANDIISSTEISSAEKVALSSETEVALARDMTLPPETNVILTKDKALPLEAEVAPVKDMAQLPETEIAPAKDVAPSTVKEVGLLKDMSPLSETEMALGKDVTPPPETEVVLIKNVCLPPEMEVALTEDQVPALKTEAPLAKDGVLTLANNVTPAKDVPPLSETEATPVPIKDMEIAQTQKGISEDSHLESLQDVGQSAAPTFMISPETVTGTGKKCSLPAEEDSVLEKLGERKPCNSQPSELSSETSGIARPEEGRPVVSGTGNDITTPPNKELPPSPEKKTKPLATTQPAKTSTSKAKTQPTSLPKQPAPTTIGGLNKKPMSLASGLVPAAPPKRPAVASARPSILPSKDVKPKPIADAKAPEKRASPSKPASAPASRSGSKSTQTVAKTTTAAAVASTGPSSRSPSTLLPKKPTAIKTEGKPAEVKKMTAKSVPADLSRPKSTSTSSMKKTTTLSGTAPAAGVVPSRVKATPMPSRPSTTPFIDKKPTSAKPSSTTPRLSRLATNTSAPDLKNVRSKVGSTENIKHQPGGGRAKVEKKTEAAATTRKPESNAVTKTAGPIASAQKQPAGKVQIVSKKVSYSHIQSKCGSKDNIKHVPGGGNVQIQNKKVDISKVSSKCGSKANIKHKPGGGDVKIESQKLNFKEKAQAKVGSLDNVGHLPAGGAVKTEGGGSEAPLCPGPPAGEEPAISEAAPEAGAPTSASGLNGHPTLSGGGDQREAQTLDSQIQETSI
UniProt Q99698: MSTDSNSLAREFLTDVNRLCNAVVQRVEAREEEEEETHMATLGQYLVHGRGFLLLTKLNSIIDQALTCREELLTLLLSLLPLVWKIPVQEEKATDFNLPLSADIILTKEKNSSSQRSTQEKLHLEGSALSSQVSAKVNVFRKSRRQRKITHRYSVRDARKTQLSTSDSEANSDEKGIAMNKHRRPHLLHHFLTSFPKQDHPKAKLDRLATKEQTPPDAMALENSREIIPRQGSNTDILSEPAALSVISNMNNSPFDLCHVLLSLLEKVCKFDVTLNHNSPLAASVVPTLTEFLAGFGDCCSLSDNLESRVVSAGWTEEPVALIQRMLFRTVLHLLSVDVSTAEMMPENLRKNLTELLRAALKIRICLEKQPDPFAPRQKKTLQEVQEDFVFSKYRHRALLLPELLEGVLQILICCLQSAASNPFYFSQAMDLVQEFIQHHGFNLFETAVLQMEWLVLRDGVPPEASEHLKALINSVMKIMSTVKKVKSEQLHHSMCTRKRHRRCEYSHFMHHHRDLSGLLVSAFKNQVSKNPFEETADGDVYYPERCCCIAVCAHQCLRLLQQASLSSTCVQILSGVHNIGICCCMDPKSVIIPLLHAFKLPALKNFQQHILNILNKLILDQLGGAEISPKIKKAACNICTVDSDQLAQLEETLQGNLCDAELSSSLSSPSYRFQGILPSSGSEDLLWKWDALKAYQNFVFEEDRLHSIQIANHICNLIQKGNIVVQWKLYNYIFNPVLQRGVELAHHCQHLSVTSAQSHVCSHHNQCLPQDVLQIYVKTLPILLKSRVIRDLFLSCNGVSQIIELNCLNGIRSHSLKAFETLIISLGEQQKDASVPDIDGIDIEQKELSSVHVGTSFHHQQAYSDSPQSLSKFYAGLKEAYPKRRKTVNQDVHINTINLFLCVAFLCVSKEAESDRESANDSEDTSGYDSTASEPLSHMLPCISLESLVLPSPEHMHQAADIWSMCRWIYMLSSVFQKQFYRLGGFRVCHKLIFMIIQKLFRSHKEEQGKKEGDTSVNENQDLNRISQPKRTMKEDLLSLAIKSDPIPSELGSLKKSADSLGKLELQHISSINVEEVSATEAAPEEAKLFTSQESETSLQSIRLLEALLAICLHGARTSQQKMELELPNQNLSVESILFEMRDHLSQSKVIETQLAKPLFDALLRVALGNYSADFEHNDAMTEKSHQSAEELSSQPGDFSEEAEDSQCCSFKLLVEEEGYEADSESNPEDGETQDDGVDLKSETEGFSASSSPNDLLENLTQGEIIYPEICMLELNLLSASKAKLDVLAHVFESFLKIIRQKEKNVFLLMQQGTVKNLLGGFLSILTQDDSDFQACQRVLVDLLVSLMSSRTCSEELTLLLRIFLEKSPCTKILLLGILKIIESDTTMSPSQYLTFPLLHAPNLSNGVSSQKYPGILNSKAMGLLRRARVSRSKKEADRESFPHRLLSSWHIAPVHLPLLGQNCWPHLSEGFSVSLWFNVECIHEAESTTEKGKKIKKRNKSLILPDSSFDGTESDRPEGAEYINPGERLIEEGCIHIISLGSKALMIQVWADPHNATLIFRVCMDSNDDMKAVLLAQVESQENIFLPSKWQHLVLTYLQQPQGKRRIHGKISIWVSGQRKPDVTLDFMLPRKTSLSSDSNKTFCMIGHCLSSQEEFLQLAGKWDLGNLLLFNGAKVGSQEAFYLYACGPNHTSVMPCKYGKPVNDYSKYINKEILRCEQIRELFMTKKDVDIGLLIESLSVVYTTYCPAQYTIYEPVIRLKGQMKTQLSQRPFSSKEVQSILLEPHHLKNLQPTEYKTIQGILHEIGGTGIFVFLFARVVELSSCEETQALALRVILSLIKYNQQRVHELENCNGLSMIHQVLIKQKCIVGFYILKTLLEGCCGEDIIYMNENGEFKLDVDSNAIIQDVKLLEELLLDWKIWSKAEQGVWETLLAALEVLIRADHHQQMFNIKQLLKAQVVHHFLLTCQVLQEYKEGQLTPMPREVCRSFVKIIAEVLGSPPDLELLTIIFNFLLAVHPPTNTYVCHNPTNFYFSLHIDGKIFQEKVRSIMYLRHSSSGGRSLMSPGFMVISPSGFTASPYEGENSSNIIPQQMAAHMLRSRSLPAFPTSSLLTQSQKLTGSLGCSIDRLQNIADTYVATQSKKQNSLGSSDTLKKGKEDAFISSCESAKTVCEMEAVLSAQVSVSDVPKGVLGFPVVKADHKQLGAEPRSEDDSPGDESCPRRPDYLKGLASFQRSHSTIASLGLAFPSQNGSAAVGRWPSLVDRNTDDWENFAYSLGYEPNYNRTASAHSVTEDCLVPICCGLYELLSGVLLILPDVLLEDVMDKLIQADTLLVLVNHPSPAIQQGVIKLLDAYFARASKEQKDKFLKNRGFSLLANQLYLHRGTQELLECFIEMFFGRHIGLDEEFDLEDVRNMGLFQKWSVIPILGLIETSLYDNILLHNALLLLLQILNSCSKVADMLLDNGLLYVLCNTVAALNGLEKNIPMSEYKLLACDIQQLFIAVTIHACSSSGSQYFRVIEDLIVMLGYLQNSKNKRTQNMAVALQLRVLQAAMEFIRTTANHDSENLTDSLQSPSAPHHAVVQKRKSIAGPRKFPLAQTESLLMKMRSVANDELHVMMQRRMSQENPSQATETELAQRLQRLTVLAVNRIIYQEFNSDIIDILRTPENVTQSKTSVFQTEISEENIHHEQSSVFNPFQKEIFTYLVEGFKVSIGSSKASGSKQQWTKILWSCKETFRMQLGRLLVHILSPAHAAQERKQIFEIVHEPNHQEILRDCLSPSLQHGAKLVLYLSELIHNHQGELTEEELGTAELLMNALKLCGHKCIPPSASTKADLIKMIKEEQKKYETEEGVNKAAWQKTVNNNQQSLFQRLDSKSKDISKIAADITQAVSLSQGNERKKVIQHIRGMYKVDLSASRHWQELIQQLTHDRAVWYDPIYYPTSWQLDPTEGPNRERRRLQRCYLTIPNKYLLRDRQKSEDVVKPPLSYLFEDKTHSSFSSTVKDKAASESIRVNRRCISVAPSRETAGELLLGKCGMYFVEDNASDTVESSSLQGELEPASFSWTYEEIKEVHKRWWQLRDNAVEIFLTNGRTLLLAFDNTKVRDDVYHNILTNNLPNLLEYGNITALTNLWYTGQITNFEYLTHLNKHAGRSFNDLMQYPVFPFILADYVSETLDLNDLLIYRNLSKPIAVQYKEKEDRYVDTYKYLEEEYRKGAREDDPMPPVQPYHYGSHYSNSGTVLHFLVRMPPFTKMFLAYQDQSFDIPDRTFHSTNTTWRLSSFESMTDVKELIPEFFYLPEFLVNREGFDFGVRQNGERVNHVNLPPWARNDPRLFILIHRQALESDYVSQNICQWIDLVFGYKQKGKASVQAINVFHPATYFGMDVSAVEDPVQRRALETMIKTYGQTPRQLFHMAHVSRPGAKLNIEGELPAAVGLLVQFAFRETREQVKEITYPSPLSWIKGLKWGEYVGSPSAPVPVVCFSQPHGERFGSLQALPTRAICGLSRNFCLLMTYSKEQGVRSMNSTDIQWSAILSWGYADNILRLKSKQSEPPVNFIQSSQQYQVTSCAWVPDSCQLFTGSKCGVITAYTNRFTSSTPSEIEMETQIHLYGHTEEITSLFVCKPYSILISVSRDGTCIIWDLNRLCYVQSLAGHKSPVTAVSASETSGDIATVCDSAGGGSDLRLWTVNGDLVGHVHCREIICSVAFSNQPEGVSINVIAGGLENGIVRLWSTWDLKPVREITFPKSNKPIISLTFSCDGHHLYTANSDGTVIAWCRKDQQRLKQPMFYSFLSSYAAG
UniProt Q15691: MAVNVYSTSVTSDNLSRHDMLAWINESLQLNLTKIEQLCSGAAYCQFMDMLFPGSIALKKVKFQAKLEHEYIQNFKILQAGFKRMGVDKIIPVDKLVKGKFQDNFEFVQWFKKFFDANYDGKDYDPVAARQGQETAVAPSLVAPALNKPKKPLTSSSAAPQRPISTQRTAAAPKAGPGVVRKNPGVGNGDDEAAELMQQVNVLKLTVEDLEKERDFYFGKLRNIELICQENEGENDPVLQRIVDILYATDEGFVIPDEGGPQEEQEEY
UniProt O75608: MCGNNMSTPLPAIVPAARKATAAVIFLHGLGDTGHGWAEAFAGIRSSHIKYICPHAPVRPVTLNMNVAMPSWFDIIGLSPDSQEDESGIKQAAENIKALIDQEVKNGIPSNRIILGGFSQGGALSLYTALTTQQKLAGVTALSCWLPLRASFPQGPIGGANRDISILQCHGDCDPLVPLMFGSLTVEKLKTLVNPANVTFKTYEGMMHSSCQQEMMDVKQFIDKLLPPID

compound: Cc1cc(ccc1-c1ccccc1)C(=O)N1CCCN(CC1)C(=O)CCl [compound 10]; test: probe-labelled cysteine peptide fold change vs DMSO (competition) (log2 fold change); higher = less target engagement (more negative = stronger competition); conditions: 50 µM; THP-1; incubation time: 4 h
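Further: competitive profiling in live THP-1 cells: cysteine peptides tagged with an iodoacetamide desthiobiotin (IA-DTB) probe, intensity after compound treatment relative to DMSO-treated cells.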

| Target | probe-labelled cysteine peptide fold change |
| --- | --- |
| LY75_O60449_597_AVTFSNWNFLEPASPGGCVAMSTGK (UniProt O60449) | 0.0449 |
| MAT2A_P31153_34_ICDQISDAVLDAHLQQDPDAK (UniProt P31153) | 0.000577 |
| MAT2B_Q9NZL9_58_EFQQNNWHAVGCGFR (UniProt Q9NZL9) | -0.023 |
| MARS_P56192_309_QWNTLYLCGTDEYGTATETK (UniProt P56192) | 0.0949 |
| MAPK3_P27361_82_ISPFEHQTYCQR (UniProt P27361) | 0.142 |
| MAP3K4_Q9Y6R4_1322_NIIGQVCDTPK (UniProt Q9Y6R4) | 0.218 |
| MAT2A_P31153_214_VHTIVISVQHDEEVCLDEMRDALK (UniProt P31153) | -0.294 |
| MAP4_P27816_635_CSLPAEEDSVLEK (UniProt P27816) | -0.133 |
| MAN2C1_Q9NTJ4_584_LLLLNQFHDVVTGSCIQMVAEEAMCHYEDIR (UniProt Q9NTJ4) | 0.485 |
| LYST_Q99698_1646+1651_TFCMIGHCLSSQEEFLQLAGK (UniProt Q99698) | -0.218 |
| MAP2K7_O14733_280_SAGCAAYMAPER (UniProt O14733) | -0.775 |
| MAPRE1_Q15691_228_NIELICQENEGENDPVLQR (UniProt Q15691) | 0.425 |
| LYAR_Q9NX58_6_VFFTCNACGESVKK (UniProt Q9NX58) | -0.401 |
| LYPLA1_O75608_169_DISILQCHGDCDPLVPLMFGSLTVEK (UniProt O75608) | -0.127 |
| LYZ_P61626_48_GISLANWMCLAK (UniProt P61626) | -0.123 |
